Each number is a percent effect as filed. How 0% and 100% were set is not recorded. Most values in the screen are low, and negative values occur. The compounds are a random part of those screened. Two or more numbers in one place are separate tests of the same structure; such repeats can differ widely. A dash means the value is not listed here; it may have been measured.

Chains of the proteins cited; added tags and fusions are not shown.
UniProt I6X8D2, whole entry: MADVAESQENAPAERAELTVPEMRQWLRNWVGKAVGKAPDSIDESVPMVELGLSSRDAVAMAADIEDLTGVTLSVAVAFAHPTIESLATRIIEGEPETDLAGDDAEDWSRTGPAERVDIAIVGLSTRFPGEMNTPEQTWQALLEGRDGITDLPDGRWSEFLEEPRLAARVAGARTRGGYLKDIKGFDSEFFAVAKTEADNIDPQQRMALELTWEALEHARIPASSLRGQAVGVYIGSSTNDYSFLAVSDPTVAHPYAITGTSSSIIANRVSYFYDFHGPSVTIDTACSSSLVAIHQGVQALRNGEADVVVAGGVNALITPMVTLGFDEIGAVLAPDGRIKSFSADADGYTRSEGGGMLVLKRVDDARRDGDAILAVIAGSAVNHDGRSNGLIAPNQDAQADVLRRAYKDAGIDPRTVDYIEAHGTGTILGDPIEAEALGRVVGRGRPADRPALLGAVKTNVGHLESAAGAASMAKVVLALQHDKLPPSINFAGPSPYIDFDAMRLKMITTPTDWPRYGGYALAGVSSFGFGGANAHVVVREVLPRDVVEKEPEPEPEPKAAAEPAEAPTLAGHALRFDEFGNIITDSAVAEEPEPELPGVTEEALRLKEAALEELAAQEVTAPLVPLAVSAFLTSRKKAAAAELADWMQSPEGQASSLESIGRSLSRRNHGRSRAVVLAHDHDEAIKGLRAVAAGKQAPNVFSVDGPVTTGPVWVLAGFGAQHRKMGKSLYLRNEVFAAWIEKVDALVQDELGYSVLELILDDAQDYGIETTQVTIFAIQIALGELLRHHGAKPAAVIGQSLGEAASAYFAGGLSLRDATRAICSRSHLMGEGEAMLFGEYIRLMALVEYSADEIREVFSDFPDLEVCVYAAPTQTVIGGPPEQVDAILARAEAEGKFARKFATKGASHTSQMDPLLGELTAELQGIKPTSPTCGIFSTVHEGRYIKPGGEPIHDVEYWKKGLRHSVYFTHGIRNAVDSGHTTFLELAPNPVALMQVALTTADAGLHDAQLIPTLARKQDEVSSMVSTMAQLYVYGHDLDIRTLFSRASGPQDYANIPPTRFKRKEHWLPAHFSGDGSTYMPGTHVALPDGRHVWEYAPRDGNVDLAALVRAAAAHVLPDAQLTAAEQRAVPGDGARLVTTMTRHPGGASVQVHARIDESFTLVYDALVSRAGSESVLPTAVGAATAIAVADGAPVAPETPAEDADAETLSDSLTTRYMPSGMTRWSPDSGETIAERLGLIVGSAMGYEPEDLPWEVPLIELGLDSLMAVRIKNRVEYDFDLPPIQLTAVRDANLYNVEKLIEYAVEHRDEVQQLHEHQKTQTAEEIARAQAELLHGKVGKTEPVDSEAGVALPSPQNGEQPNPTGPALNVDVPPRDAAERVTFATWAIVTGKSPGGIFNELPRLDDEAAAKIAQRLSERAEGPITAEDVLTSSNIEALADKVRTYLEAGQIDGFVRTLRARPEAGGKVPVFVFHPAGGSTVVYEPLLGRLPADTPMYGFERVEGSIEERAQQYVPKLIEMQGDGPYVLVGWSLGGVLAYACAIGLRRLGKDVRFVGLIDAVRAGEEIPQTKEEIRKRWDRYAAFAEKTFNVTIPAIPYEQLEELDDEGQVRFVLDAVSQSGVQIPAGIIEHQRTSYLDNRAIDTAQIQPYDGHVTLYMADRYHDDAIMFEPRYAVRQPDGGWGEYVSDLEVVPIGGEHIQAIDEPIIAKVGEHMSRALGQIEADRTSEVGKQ
UniProt P9WNZ1, whole entry: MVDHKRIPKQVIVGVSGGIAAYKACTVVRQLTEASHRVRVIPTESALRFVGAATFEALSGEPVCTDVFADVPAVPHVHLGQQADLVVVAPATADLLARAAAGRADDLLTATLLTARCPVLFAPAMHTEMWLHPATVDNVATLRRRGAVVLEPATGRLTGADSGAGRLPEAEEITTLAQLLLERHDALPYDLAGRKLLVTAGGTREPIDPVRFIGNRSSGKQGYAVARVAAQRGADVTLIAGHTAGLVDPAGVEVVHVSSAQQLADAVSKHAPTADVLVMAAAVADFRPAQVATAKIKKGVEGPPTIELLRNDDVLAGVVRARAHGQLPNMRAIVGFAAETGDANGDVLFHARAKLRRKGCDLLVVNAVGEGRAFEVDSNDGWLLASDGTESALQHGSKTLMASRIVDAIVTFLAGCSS
UniProt P9WPC5, whole entry: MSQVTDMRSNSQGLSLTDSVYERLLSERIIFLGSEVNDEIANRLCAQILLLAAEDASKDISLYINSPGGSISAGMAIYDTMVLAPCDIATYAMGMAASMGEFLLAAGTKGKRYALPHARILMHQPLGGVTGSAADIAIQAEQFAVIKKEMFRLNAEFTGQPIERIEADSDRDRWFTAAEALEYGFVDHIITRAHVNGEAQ
UniProt P9WPC3, whole entry partner: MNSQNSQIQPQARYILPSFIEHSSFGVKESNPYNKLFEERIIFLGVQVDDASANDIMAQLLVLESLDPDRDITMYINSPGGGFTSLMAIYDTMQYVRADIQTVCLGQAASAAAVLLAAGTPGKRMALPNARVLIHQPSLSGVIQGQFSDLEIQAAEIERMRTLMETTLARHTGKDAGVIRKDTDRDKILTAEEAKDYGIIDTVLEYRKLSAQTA
UniProt P9WFT3, whole entry: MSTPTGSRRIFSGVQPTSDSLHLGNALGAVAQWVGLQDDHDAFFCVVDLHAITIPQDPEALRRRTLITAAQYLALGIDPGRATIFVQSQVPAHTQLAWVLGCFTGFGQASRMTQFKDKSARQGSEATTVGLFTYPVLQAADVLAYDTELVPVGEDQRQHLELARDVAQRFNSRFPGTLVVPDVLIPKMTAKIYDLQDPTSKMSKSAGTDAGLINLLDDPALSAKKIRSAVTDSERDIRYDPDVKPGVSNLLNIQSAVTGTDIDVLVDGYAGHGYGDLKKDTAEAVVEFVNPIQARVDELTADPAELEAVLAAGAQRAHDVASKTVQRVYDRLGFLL

A: 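Enzyme assay of the thioesterase domain of polyketide synthase 13; the read-out is not stated. Target: Polyketide synthase Pks13, Mycobacterium tuberculosis (UniProt I6X8D2). Tested at 30 µM. The record gives no direction; the compounds picked for IC50 retests had high values, so higher reads as stronger inhibition. About 67,000 compounds were tested under these conditions; 0.46% (about 300) showed 50% or more at least once.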
B: 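Assay of Toxoplasma gondii numbers, read through their beta-galactosidase reporter with a colour substrate. Compounds at 10 µM. Higher reads as fewer parasites (inferred from which compounds were picked for retests). Size under these conditions: about 67,000 compounds, about 260 of them at 50% or above in at least one test.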
C: 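Enzyme assay of CoaBC with a phosphate dye (Biomol Green) read at 650 nm. Target: Coenzyme A biosynthesis protein CoaBC, Mycobacterium tuberculosis (UniProt P9WNZ1). Compounds at 30 µM. Higher reads as stronger inhibition, judged from the few compounds that gave an IC50. Most strong results did not repeat in a second test. About 67,000 compounds were tested under these conditions; 0.06% (about 40) showed 50% or more at least once.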
D: 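Protease assay of ClpP1P2, read by the AMC dye that it sets free. Target: ClpP1P2, Mycobacterium tuberculosis (UniProt P9WPC5 and UniProt P9WPC3). Compounds at 50 µM. Higher reads as stronger inhibition, judged from the few compounds that gave an IC50. Most other retested compounds had strongly negative values. Of about 69,000 compounds tested this way, about 10 (0.015%) reached 50% or more in at least one test.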
E: 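Cell assay of Leishmania donovani living inside macrophages; the read-out is not stated. Concentration: 30 µM. Direction is inferred from retests: higher values go with stronger inhibition. About 69,000 compounds were tested under these conditions; 1.5% (about 1,000) showed 50% or more at least once.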
F: 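Tryptophan-tRNA ligase, Mycobacterium tuberculosis (UniProt P9WFT3). Enzyme assay of tryptophanyl-tRNA synthetase; the read-out is not stated. Tested at 10 µM. Higher most likely means stronger inhibition; the record gives no direction and few retests gave an IC50. About 65,000 compounds were tested under these conditions; 0.098% (about 64) showed 50% or more at least once.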

| compound | A | B | C | D | E | F |
|---|---|---|---|---|---|---|
| `O=C(NC1CCc2ccccc2C1)N1CCN(C(=O)C2CCC2)CC1` (stereo not given) | -34.03 | -12.25 | -6.452 | -2.584 | 36.67 | -5.094 |
| `O=C(O)C(F)(F)F.[H][C@@]12CCN(Cc3ccc(F)cc3)[C@]1([H])CC[C@H](C(=O)N1CCCO1)O2` | - | 8.169 | - | - | 20.08 | - |
| `Cn1cnc2c1CCN(CCS(=O)(=O)c1ccccc1)C2` | -13.91 | -2.451 | 2.738 | -1.818 | 36.32 | 1.098 |
| `COc1ccc(CN[C@H]2CC[C@@]3(CCC(=O)N3)CC2)cc1.O=C(O)C(F)(F)F` | - | 1.5 | - | - | -0.1486 | - |
| `O=C(Nc1cc(-c2ccncc2)no1)C1CCC1` | -19.7 | 8.167 | 4.073 | -1.932 | 7.825 | -3.667 |
| `Nc1cncc(C(=O)N2Cc3ccccc3OC3(CCOCC3)C2)c1` | 11.28 | -41.31 | 1.46 | -12.26 | 12.15 & 19.81 | -0.05798 |
| `CN1CCCN(C(=O)NCCNc2ncccc2C#N)CC1` | 16.04 | 1.77 | -16.03 | -11.34 | 30.94 | -1.499 |
| `CC(C)(C)CC(=O)NS(=O)(=O)c1ccc(C#N)cc1C(F)(F)F` | -6.958 | 2.474 | -0.8772 | -0.741 | 0.9949 | 5.13 |
| `Cc1cnc2n(c1=O)CC(C(=O)Nc1ccccc1Cl)CS2` (stereo not given) | -23.45 | -3.941 | -4.904 | -5.551 | 12.35 | 4.205 |
| `Cn1c(-c2cc3n(n2)CCCN(CC(=O)O)C3)nc2ccccc21` | -7.501 | 17.02 | -1.077 | -9.183 | 13.89 | -29.16 |
| `CN(C)C(=O)c1cnc2n1CCN(Cc1cccc(C#N)c1)C2` | 6.369 | - | 1 | -7.01 | - | -0.6255 |
| `Cc1noc([C@H]2COC[C@H]3CN(C(=O)Cc4ccc(F)cc4)C[C@H]32)n1` | -22.52 | - | 6.418 | -3.093 | - | 2.439 |
| `Cc1ccccc1C(C(=O)O)N(C)CC1CCOCC1` (stereo not given) | -6.573 | -3.968 | 6.582 | 4.483 | 20.89 | -4.941 |
| `CC(=O)N(C)Cc1ccc(OCc2cccs2)cc1` | -44.89 | 3.077 | -4.069 | -2.088 | -4.937 | -38.52 |
| `CCN1CCN(C(=O)c2ccc(OC)nn2)c2ccccc21` | 15.8 | 8.968 | 1.238 | -15.53 | -237.3 | -1.452 |
| `CC(=O)N1CCCC1c1cc(Nc2nnc(C)s2)nc(C)n1` (stereo not given) | -17.95 | 1.893 | 3.346 | 4.958 | -9.384 | - |
| `Cc1nc2c(c(=O)[nH]1)CCN(Cc1ccc3c(c1)CCCN3C)C2` | -1.005 | -6.226 | 0.6849 | -15.12 | 14.9 | -4.525 |
| `CCOCC1CN(C)Cc2cnn(CC3CCCC3)c21` (stereo not given) | - | - | 5.806 | -4.06 | - | -0.08224 |
| `[H][C@@]12CCN(C(=O)OCc3ccccc3)C[C@@]1([H])OC(CO)C2` (stereo not given in full) | - | 9.89 | - | - | -47.27 | - |
| `O=C(O)C(=O)O.c1ccc2c(c1)SCCC2NCc1ccc(N2CCOCC2)cc1` (stereo not given) | - | -42.57 | - | - | 2.679 | - |
| `Cc1cc(C)c2ncn(CCC(C)O)c(=O)c2c1` (stereo not given) | -34.01 | 3.767 | - | 2.744 | 4.764 | -2.27 |
| `Cc1cc(C)nc(N2CCC(c3cc(CCO)[nH]n3)C2)n1` (stereo not given) | -7.041 | 6.659 | -4.468 | -10.44 | 15.43 | -2.211 |
| `CN1CC2(CCN(C(=O)c3cc(-n4cccn4)ccc3Cl)CC2)OC1=O` | -17.18 | -2.013 | 6.157 | 0.8049 | 21.55 | -3.601 |
| `CC(C)(CNC(=O)C1(c2cccc(Br)c2)CCOCC1)C(=O)O` | -29.3 | -1.081 | 7.127 | -0.763 | 28.81 | -1.847 |
| `O=C(O)C(F)(F)F.[H][C@@]12C[C@@H](C(=O)N(C)C)CN(CCOc3ccc(Cl)cc3)[C@]1([H])CCO2` | - | 3.82 | - | - | -1.438 | - |
| `CSC(C)(C)CNC(=O)NCC[S+]([O-])c1ccccc1F` (stereo not given) | -17.47 | -2.498 | 4.382 | -5.943 | 14.7 | -5.062 |
| `Cc1cccc(CCNC(=O)CCS(=O)(=O)C2CCCC2)c1` | -18.37 | -2.984 | 3.99 | 6.52 | -22.21 | -0.7346 |
| `CCC(C)(CC(=O)O)NC(=O)Cc1ccccc1Br` (stereo not given) | -16.27 | -1.868 | 1.38 | -12.68 | 26.82 | -5.599 |
| `COc1ccccc1C(=O)N(Cc1nc(C)cs1)CC1CCCO1` (stereo not given) | -1.614 | -3.687 | 1.202 | -0.4383 | 9.199 | 3.653 |
| `CNc1nc(C2CCCN2)nc2c1CCN(S(=O)(=O)C1CCCCC1)C2` (stereo not given) | -17.53 | - | -7.601 | 17.97 | - | 1.97 |
| `O=C(Cc1c(F)cccc1Cl)Nc1cccc(N2CCCC2)c1` | 13.19 | -1.309 | 8.151 | 5.694 | 17.18 | -4.558 |
| `COc1ccc(-c2nc(C(=O)NCC3CCOC3)cs2)cc1OC` (stereo not given) | -7.583 | 10.25 | 2.194 | 5.374 | 4.535 | -7.205 |
| `Cc1ccccc1-c1noc(-c2ccc(NCC3COCCO3)nc2)n1` (stereo not given) | -13.65 | -8.065 | 7.767 | -9.228 | 5.374 | 1.514 |
| `CCS(=O)(=O)N1CCOC2(CCCN(c3ccc(C)nn3)C2)C1` (stereo not given) | -9.774 | - | 4.949 | 5.033 | - | -3.463 |
| `CC(C)N1CCOCC2(CN(Cc3ccccn3)CCO2)C1` (stereo not given) | -14.54 | - | -1.394 | -3.446 | - | -1.213 |
| `CC(=O)N1CCCCCC1C1CCN(Cc2nc(C(C)C)no2)CC1.Cl` (stereo not given) | - | -0.05917 | - | - | 6.789 | - |
| `O=C(C1CC1)N1C[C@H]2CNC[C@@]2(C(=O)NCCCc2ccccc2)C1` | -27.1 | - | -1.852 | -6.169 | - | -5.533 |
| `Nc1cc(N2CCCC(Cc3ccc(F)cc3F)(C(=O)O)C2)ncn1` (stereo not given) | -2.672 | -17.48 | 11.25 | -1.736 | 0.1544 | -2.571 |
| `Cc1ccc(C(C)NC(=O)Cc2c(C)nc3c(c2C)c(=O)[nH]n3C)o1` (stereo not given) | -12.56 | 31.84 | -3.182 | -17.83 | 0.9419 | 1.906 |
| `Cc1cc(C)cc(C(=O)NCc2ncnn2C)c1` | -42.25 | 18.91 | - | 2.741 | -3.252 | -4.644 |
| `CCCc1noc(CCC(=O)NC(C)c2nnc3n2CCCCC3)n1` (stereo not given) | -6.288 | 2.286 | -3.524 | 1.796 | 8.555 | -0.5029 |

Once more, the final 2:

| compound | A | B | C | D | E | F |
|---|---|---|---|---|---|---|
| `Cc1cc(C)cc(C(=O)NCc2ncnn2C)c1` | -42.25 | 18.91 | - | 2.741 | -3.252 | -4.644 |
| `CCCc1noc(CCC(=O)NC(C)c2nnc3n2CCCCC3)n1` (stereo not given) | -6.288 | 2.286 | -3.524 | 1.796 | 8.555 | -0.5029 |

Measurements from “University of Dundee, Small-Polar-MMV Screening Library” (2021), ChEMBL document CHEMBL3988442.